What all share (experiment): proximity labelling; BioID: N-terminally MAC-tagged bait in Flp-In T-REx 293 cells, induced with 2 μg/ml tetracycline and 50 μM biotin for 24 h; three independent replicates; mass spectrometry
For test [1], the target named is T1, MAC-RBM41-(1–258) (human) (UniProt Q96IZ5).
T1 sequence: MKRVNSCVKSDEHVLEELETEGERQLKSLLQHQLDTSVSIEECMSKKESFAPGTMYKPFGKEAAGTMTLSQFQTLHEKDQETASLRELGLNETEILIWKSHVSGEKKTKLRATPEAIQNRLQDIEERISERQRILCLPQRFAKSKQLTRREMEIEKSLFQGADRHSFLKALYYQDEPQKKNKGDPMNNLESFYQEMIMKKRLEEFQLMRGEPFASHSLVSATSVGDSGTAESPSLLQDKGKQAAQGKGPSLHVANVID

A further test addresses T2, MAC-U11/U12-65K (human) (UniProt Q96LT9).
T2 sequence: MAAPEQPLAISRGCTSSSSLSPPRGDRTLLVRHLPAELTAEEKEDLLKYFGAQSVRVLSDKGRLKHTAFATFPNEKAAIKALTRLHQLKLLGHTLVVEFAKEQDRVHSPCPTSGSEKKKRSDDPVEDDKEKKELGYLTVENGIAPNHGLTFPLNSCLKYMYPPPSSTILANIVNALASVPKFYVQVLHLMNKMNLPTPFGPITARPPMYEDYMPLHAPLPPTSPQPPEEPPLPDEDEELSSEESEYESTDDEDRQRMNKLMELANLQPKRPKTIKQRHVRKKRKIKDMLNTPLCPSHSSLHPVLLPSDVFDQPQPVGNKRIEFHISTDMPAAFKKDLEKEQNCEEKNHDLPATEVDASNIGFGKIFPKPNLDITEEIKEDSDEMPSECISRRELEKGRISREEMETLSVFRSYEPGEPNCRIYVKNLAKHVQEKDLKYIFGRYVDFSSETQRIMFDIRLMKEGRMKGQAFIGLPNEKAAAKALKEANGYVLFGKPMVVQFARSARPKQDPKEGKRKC

A further test deals with T3, MAC-RBM41-Y312A (human) (UniProt Q96IZ5).
T3 sequence: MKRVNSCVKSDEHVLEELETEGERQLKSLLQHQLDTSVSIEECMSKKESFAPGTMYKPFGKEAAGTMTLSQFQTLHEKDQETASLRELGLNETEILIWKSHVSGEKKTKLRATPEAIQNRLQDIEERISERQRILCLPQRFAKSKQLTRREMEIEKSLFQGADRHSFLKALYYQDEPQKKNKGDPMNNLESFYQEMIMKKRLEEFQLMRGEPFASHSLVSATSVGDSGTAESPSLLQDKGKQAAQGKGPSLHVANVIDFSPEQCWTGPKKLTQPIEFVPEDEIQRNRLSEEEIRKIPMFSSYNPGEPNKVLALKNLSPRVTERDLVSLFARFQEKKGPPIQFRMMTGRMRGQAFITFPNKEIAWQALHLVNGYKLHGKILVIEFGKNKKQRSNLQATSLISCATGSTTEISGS

The next test deals with T4, MAC-RBM41-Q352A (human) (UniProt Q96IZ5).
T4 sequence: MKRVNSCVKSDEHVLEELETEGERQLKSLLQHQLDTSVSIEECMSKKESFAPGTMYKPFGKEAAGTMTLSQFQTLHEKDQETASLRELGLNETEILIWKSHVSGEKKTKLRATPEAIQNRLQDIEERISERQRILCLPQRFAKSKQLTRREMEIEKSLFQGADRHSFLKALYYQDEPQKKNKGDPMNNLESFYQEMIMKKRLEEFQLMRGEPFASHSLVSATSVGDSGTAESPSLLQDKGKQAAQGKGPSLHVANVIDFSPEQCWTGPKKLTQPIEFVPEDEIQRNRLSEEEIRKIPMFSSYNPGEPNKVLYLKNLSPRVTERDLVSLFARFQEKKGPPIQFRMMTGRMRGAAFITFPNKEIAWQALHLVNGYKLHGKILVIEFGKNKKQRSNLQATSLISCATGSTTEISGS

In test [2] the target is T5, MAC-RBM41-Y312A + F354A (human) (UniProt Q96IZ5).
T5 sequence: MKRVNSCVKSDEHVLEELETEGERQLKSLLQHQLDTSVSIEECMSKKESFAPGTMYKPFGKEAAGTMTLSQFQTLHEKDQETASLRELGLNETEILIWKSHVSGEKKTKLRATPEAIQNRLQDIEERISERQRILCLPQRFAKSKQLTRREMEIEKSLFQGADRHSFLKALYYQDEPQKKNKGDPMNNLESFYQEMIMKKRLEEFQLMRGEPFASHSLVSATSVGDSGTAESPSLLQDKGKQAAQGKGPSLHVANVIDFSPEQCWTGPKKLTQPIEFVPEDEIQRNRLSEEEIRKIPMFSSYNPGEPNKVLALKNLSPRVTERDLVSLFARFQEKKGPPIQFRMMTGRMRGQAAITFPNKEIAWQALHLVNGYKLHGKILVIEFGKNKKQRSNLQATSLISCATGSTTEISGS

A further test deals with T6, MAC-RBM41-F354A (human) (UniProt Q96IZ5).
T6 sequence: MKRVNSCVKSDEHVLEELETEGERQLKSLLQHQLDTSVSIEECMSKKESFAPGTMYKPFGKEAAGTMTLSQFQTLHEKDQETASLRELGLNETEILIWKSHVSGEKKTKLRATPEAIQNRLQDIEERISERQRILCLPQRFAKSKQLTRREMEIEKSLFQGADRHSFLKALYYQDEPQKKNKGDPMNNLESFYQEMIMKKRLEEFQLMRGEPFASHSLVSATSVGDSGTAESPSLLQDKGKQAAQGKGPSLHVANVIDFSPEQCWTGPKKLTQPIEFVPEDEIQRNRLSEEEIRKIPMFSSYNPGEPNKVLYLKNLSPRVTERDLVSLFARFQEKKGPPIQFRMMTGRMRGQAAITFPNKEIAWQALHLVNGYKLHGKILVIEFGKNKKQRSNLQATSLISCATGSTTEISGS

Another test addresses T7, MAC-RBM41-WT (human) (UniProt Q96IZ5).
T7 sequence: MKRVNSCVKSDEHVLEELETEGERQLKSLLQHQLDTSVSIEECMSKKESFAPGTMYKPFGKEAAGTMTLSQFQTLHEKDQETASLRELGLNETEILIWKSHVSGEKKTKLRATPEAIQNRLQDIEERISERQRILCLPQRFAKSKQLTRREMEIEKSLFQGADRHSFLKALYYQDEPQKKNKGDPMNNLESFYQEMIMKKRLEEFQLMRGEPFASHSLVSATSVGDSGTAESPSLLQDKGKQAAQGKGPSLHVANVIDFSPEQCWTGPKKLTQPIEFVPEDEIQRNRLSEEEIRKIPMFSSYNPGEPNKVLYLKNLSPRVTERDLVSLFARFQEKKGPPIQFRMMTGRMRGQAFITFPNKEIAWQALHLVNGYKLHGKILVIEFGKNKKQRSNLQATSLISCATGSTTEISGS

Results are given in words; binding and its absence hold for the method and conditions named. Binding seen in cells or lysates may run through a third protein. These calls come from enrichment with a bait or labelling near it, and not all partners need be listed. For some of these results: A no says only that the protein was not detected with the bait.

B1: DEAH-box RNA helicase DHX8 (enzyme, UniProt Q14562 1-1220)
chain: MAVAVAMAGALIGSEPGPAEELAKLEYLSLVSKVCTELDNHLGINDKDLAEFVISLAEKNTTFDTFKASLVKNGAEFTDSLISNLLRLIQTMRPPAKPSTSKDPVVKPKTEKEKLKELFPVLCQPDNPSVRTMLDEDDVKVAVDVLKELEALMPSAAGQEKQRDAEHRDRTKKKKRSRSRDRNRDRDRDRERNRDRDHKRRHRSRSRSRSRTRERNKVKSRYRSRSRSQSPPKDRKDRDKYGERNLDRWRDKHVDRPPPEEPTIGDIYNGKVTSIMQFGCFVQLEGLRKRWEGLVHISELRREGRVANVADVVSKGQRVKVKVLSFTGTKTSLSMKDVDQETGEDLNPNRRRNLVGETNEETSMRNPDRPTHLSLVSAPEVEDDSLERKRLTRISDPEKWEIKQMIAANVLSKEEFPDFDEETGILPKVDDEEDEDLEIELVEEEPPFLRGHTKQSMDMSPIKIVKNPDGSLSQAAMMQSALAKERRELKQAQREAEMDSIPMGLNKHWVDPLPDAEGRQIAANMRGIGMMPNDIPEWKKHAFGGNKASYGKKTQMSILEQRESLPIYKLKEQLVQAVHDNQILIVIGETGSGKTTQITQYLAEAGYTSRGKIGCTQPRRVAAMSVAKRVSEEFGCCLGQEVGYTIRFEDCTSPETVIKYMTDGMLLRECLIDPDLTQYAIIMLDEAHERTIHTDVLFGLLKKTVQKRQDMKLIVTSATLDAVKFSQYFYEAPIFTIPGRTYPVEILYTKEPETDYLDASLITVMQIHLTEPPGDILVFLTGQEEIDTACEILYERMKSLGPDVPELIILPVYSALPSEMQTRIFDPAPPGSRKVVIATNIAETSLTIDGIYYVVDPGFVKQKVYNSKTGIDQLVVTPISQAQAKQRAGRAGRTGPGKCYRLYTERAYRDEMLTTNVPEIQRTNLASTVLSLKAMGINDLLSFDFMDAPPMETLITAMEQLYTLGALDDEGLLTRLGRRMAEFPLEPMLCKMLIMSVHLGCSEEMLTIVSMLSVQNVFYRPKDKQALADQKKAKFHQTEGDHLTLLAVYNSWKNNKFSNPWCYENFIQARSLRRAQDIRKQMLGIMDRHKLDVVSCGKSTVRVQKAICSGFFRNAAKKDPQEGYRTLIDQQVVYIHPSSALFNRQPEWVVYHELVLTTKEYMREVTTIDPRWLVEFAPAFFKVSDPTKLSKQKKQQRLEPLYNRYEEPNAWRISRAFRRR
On to B1, for which the binding entry is listed as “binds” in test [1]; “no binding” with MAC-U11/U12-65K (human); “binds” with MAC-RBM41-Y312A (human); “binds” with MAC-RBM41-Q352A (human); “binds” in test [2]; “binds” with MAC-RBM41-F354A (human). Besides, in the test with MAC-RBM41-WT (human), the binding result was “binds”.

For the origin of these results see paper PMC11039992.
